# Measurements from patent publication US20260062449A1, “PEPTIDE COMPOSITIONS AND METHODS OF USE” (ONL Therapeutics, Inc., priority 2022, published 2026).
# Not every detail of the peptide structures is certain; ends, links or a residue may be inferred. No end group written: not given here.
# Key:
# [1] = Activity of Met-12 citrate solution in the in vitro and in vivo assays; settings: 10 rang/mL solution in 20 mM citrate buffer pH 2.8, in vitro and in vivo assays
# photoreceptor cells = settings: cell culture experiments and separation of the retinal and retinal pigment epithelium; cited from earlier work
sequence,measurement,setting,value
"HHIYLGAVNYIY [Met-12, H^60HIYLGAVNYIY^71]",loss in activity,[1],at least a fivefold loss in activity
same,photoreceptor protection,photoreceptor cells,photoreceptor protective
